Our source for the binding values is paper PMC4076869.

Amino acid sequences for entries named in this document (tags omitted). A change or cut given only in a name is not applied to a line headed by its entry.
UniProt P03255: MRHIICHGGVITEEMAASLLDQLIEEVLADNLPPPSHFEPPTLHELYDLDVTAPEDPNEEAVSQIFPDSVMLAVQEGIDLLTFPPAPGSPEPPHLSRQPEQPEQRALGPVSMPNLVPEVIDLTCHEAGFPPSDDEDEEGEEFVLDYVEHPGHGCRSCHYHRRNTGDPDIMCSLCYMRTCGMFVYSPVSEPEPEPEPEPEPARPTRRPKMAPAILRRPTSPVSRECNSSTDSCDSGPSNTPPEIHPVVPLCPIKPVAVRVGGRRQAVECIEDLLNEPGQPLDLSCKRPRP
UniProt O00716: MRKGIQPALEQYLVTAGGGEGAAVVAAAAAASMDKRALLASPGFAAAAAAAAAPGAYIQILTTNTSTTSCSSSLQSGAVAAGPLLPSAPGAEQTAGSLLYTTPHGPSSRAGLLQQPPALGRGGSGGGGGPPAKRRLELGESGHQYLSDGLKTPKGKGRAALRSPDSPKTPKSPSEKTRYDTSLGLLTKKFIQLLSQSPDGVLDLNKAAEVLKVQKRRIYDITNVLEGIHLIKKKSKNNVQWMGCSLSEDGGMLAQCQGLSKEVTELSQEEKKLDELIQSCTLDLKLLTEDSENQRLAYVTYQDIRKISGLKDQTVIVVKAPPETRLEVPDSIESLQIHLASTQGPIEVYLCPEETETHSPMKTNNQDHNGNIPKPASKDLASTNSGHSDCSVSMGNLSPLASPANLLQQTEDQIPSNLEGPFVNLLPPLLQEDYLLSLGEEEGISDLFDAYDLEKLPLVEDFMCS
UniProt Q14209: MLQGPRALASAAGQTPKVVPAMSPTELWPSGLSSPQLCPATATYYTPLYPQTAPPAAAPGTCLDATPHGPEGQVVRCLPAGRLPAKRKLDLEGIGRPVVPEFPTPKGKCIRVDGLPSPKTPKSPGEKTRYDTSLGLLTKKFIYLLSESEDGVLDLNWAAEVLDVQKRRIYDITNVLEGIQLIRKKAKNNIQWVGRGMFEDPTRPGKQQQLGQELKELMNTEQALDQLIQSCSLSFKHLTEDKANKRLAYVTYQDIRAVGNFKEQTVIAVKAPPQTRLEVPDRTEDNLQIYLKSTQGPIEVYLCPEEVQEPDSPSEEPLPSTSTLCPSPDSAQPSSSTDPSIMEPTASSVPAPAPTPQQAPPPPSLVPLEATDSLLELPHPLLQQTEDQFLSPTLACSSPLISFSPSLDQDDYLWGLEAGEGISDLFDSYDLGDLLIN

No constants are given. Whether binding was seen depends on the method and setting. In cells and extracts the contact can be indirect. Some entries that bind do so weakly or less than the wild type. For some assays here: Tags and fused reporters may be left off the sequences shown.

Common to all, as to test: co-IP; each Rb-HA construct co-transfected into cells co-expressing E1a or a Myc-tagged E2F; E1a or the E2F immunoprecipitated, immunoblot for the associated Rb-HA
In general terms: A western blot detects proteins with antibodies after separation by electrophoresis.

The target of test [1] is E1a oncoprotein (adenovirus (type not stated)) (UniProt P03255).
For test [2], the target named is E2F-3 transcription factor (Myc tagged) (UniProt O00716).
For test [3], the target named is E2F-2 transcription factor (Myc tagged) (UniProt Q14209).

Turning to “Rb-HA single Cdk site construct T373 (mono-phosphorylated Rb isoform) (from UniProt P06400 1-928)”, in test [1], the binding entry is “binds”. Turning to “Rb-HA single Cdk site construct S780 (mono-phosphorylated Rb isoform) (from UniProt P06400 1-928)”, in test [1], the binding entry is “binds”. As for “Rb-HA single Cdk site construct S608 (mono-phosphorylated Rb isoform) (from UniProt P06400 1-928)”, the binding result in test [1] is reported as “binds”. For the molecule “Rb-HA single Cdk site construct S612 (mono-phosphorylated Rb isoform) (from UniProt P06400 1-928)”, the binding entry in test [1] was “binds”. On the same count and under the same terms, under “Rb-HA single Cdk site construct S249 (mono-phosphorylated Rb isoform) (from UniProt P06400 1-928)” stands “binds”. For “Rb-HA single Cdk site construct T826 (mono-phosphorylated Rb isoform) (from UniProt P06400 1-928)”, the binding entry in test [1] is on record as “binds”.

As to “Rb-HA single Cdk site construct S811 (mono-phosphorylated Rb isoform) (from UniProt P06400 1-928)”, the binding entry in test [1] is recorded as “binds”. The same measure, in the same setting: under “Rb-HA single Cdk site construct S807 (mono-phosphorylated Rb isoform) (from UniProt P06400 1-928)” stands “binds”. “non-phosphorylatable ΔCdk Rb-HA (human Rb^ΔCDK-HA) (from UniProt P06400 1-928)”: the binding result in test [1] is recorded as “binds”.

For the molecule “Rb-HA single Cdk site construct T252 (mono-phosphorylated Rb isoform) (from UniProt P06400 1-928)”, the binding result in test [1] is reported as “binds”. Consider “Rb-HA single Cdk site construct T821 (mono-phosphorylated Rb isoform) (from UniProt P06400 1-928)”, for which, in test [1], the binding entry is “binds”.

With “Rb-HA single Cdk site construct S795 (mono-phosphorylated Rb isoform) (from UniProt P06400 1-928)”, the binding result in test [1] is listed as “binds”. “Rb-HA single Cdk site construct S230 (mono-phosphorylated Rb isoform) (from UniProt P06400 1-928)”: in test [1], the binding entry is “binds”.

Turning to “Rb-HA single Cdk site construct T356 (mono-phosphorylated Rb isoform) (from UniProt P06400 1-928)”, the binding result in test [1] is “binds”. Turning to “Rb-HA single Cdk site construct S788 (mono-phosphorylated Rb isoform) (from UniProt P06400 1-928)”, in test [1], the binding entry is recorded as “binds”.

B1: Rb-HA single Cdk site construct T252 (mono-phosphorylated Rb isoform) (protein, UniProt P06400 1-928)
chain: MPPKAPRKTAATAAAAAAEPPAPPPPPPPEEDPEQDSGPEDLPLVRLEFEETEEPDFTALCQKLKIPDHVRERAWLTWEKVSSVDGVLGGYIQKKKELWGICIFIAAVDLDEMSFTFTELQKNIEISVHKFFNLLKEIDTSTKVDNAMSRLLKKYDVLFALFSKLERTCELIYLTQPSSSISTEINSALVLKVSWITFLLAKGEVLQMEDDLVISFQLMLCVLDYFIKLAPPMLLKEPYKTAVIPINGAPRTPRRGQNRSARIAKQLENDTRIIEVLCKEHECNIDEVKNVYFKNFIPFMNSLGLVTSNGLPEVENLSKRYEEIYLKNKDLDARLFLDHDKTLQTDSIDSFETQRAPRKSNLDEEVNVIPPHAPVRTVMNTIQQLMMILNSASDQPSENLISYFNNCTVNPKESILKRVKDIGYIFKEKFAKAVGQGCVEIGSQRYKLGVRLYYRVMESMLKSEEERLSIQNFSKLLNDNIFHMSLLACALEVVMATYSRSTSQNLDSGTDLSFPWILNVLNLKAFDFYKVIESFIKAEGNLTREMIKHLERCEHRIMESLAWLSDSPLFDLIKQSKDREGPTDHLESACPLNLPLQNNHTAADMYLAPVRAPKKKGSTTRVNSTANAETQATSAFQTQKPLKSTSLSLFYKKVYRLAYLRLNTLCERLLSEHPELEHIIWTLFQHTLQNEYELMRDRHLDQIMMCSMYGICKVKNIDLKFKIIVTAYKDLPHAVQETFKRVLIKEEEYDSIIVFYNSVFMQRLKTNILQYASTRPPTLAPIPHIPRAPYKFPSAPLRIPGGNIYIAPLKAPYKISEGLPAPTKMAPRSRILVSIGESFGTSEKFQKINQMVCNSDRVLKRSAEGSNPPKPLKKLRFDIEGSDEADGSKHLPGESKFQQKLAEMTSTRTRMQKQKMNDSMDTSNKEEK
modifications: phosphate on T252 (mono-phosphorylated in cells)
On to B1, for which the binding entry in test [2] and in test [3] was “binds” in each case.

B2: Rb-HA single Cdk site construct T356 (mono-phosphorylated Rb isoform) (protein, UniProt P06400 1-928)
chain: MPPKAPRKTAATAAAAAAEPPAPPPPPPPEEDPEQDSGPEDLPLVRLEFEETEEPDFTALCQKLKIPDHVRERAWLTWEKVSSVDGVLGGYIQKKKELWGICIFIAAVDLDEMSFTFTELQKNIEISVHKFFNLLKEIDTSTKVDNAMSRLLKKYDVLFALFSKLERTCELIYLTQPSSSISTEINSALVLKVSWITFLLAKGEVLQMEDDLVISFQLMLCVLDYFIKLAPPMLLKEPYKTAVIPINGAPRAPRRGQNRSARIAKQLENDTRIIEVLCKEHECNIDEVKNVYFKNFIPFMNSLGLVTSNGLPEVENLSKRYEEIYLKNKDLDARLFLDHDKTLQTDSIDSFETQRTPRKSNLDEEVNVIPPHAPVRTVMNTIQQLMMILNSASDQPSENLISYFNNCTVNPKESILKRVKDIGYIFKEKFAKAVGQGCVEIGSQRYKLGVRLYYRVMESMLKSEEERLSIQNFSKLLNDNIFHMSLLACALEVVMATYSRSTSQNLDSGTDLSFPWILNVLNLKAFDFYKVIESFIKAEGNLTREMIKHLERCEHRIMESLAWLSDSPLFDLIKQSKDREGPTDHLESACPLNLPLQNNHTAADMYLAPVRAPKKKGSTTRVNSTANAETQATSAFQTQKPLKSTSLSLFYKKVYRLAYLRLNTLCERLLSEHPELEHIIWTLFQHTLQNEYELMRDRHLDQIMMCSMYGICKVKNIDLKFKIIVTAYKDLPHAVQETFKRVLIKEEEYDSIIVFYNSVFMQRLKTNILQYASTRPPTLAPIPHIPRAPYKFPSAPLRIPGGNIYIAPLKAPYKISEGLPAPTKMAPRSRILVSIGESFGTSEKFQKINQMVCNSDRVLKRSAEGSNPPKPLKKLRFDIEGSDEADGSKHLPGESKFQQKLAEMTSTRTRMQKQKMNDSMDTSNKEEK
modifications: phosphate on T356 (mono-phosphorylated in cells)
On to B2, for which the binding result in test [2] and in test [3] was “binds” in each case.

B3: Rb-HA single Cdk site construct S608 (mono-phosphorylated Rb isoform) (protein, UniProt P06400 1-928)
chain: MPPKAPRKTAATAAAAAAEPPAPPPPPPPEEDPEQDSGPEDLPLVRLEFEETEEPDFTALCQKLKIPDHVRERAWLTWEKVSSVDGVLGGYIQKKKELWGICIFIAAVDLDEMSFTFTELQKNIEISVHKFFNLLKEIDTSTKVDNAMSRLLKKYDVLFALFSKLERTCELIYLTQPSSSISTEINSALVLKVSWITFLLAKGEVLQMEDDLVISFQLMLCVLDYFIKLAPPMLLKEPYKTAVIPINGAPRAPRRGQNRSARIAKQLENDTRIIEVLCKEHECNIDEVKNVYFKNFIPFMNSLGLVTSNGLPEVENLSKRYEEIYLKNKDLDARLFLDHDKTLQTDSIDSFETQRAPRKSNLDEEVNVIPPHAPVRTVMNTIQQLMMILNSASDQPSENLISYFNNCTVNPKESILKRVKDIGYIFKEKFAKAVGQGCVEIGSQRYKLGVRLYYRVMESMLKSEEERLSIQNFSKLLNDNIFHMSLLACALEVVMATYSRSTSQNLDSGTDLSFPWILNVLNLKAFDFYKVIESFIKAEGNLTREMIKHLERCEHRIMESLAWLSDSPLFDLIKQSKDREGPTDHLESACPLNLPLQNNHTAADMYLSPVRAPKKKGSTTRVNSTANAETQATSAFQTQKPLKSTSLSLFYKKVYRLAYLRLNTLCERLLSEHPELEHIIWTLFQHTLQNEYELMRDRHLDQIMMCSMYGICKVKNIDLKFKIIVTAYKDLPHAVQETFKRVLIKEEEYDSIIVFYNSVFMQRLKTNILQYASTRPPTLAPIPHIPRAPYKFPSAPLRIPGGNIYIAPLKAPYKISEGLPAPTKMAPRSRILVSIGESFGTSEKFQKINQMVCNSDRVLKRSAEGSNPPKPLKKLRFDIEGSDEADGSKHLPGESKFQQKLAEMTSTRTRMQKQKMNDSMDTSNKEEK
modifications: phosphate on S608 (mono-phosphorylated in cells)
Turning to B3, the binding result in test [2] and in test [3] was “binds” throughout.

B4: Rb-HA single Cdk site construct S612 (mono-phosphorylated Rb isoform) (protein, UniProt P06400 1-928)
chain: MPPKAPRKTAATAAAAAAEPPAPPPPPPPEEDPEQDSGPEDLPLVRLEFEETEEPDFTALCQKLKIPDHVRERAWLTWEKVSSVDGVLGGYIQKKKELWGICIFIAAVDLDEMSFTFTELQKNIEISVHKFFNLLKEIDTSTKVDNAMSRLLKKYDVLFALFSKLERTCELIYLTQPSSSISTEINSALVLKVSWITFLLAKGEVLQMEDDLVISFQLMLCVLDYFIKLAPPMLLKEPYKTAVIPINGAPRAPRRGQNRSARIAKQLENDTRIIEVLCKEHECNIDEVKNVYFKNFIPFMNSLGLVTSNGLPEVENLSKRYEEIYLKNKDLDARLFLDHDKTLQTDSIDSFETQRAPRKSNLDEEVNVIPPHAPVRTVMNTIQQLMMILNSASDQPSENLISYFNNCTVNPKESILKRVKDIGYIFKEKFAKAVGQGCVEIGSQRYKLGVRLYYRVMESMLKSEEERLSIQNFSKLLNDNIFHMSLLACALEVVMATYSRSTSQNLDSGTDLSFPWILNVLNLKAFDFYKVIESFIKAEGNLTREMIKHLERCEHRIMESLAWLSDSPLFDLIKQSKDREGPTDHLESACPLNLPLQNNHTAADMYLAPVRSPKKKGSTTRVNSTANAETQATSAFQTQKPLKSTSLSLFYKKVYRLAYLRLNTLCERLLSEHPELEHIIWTLFQHTLQNEYELMRDRHLDQIMMCSMYGICKVKNIDLKFKIIVTAYKDLPHAVQETFKRVLIKEEEYDSIIVFYNSVFMQRLKTNILQYASTRPPTLAPIPHIPRAPYKFPSAPLRIPGGNIYIAPLKAPYKISEGLPAPTKMAPRSRILVSIGESFGTSEKFQKINQMVCNSDRVLKRSAEGSNPPKPLKKLRFDIEGSDEADGSKHLPGESKFQQKLAEMTSTRTRMQKQKMNDSMDTSNKEEK
modifications: phosphate on S612 (mono-phosphorylated in cells)
With B4, the binding entry in test [2] and in test [3] was “binds” in each case.
